These are yes or no findings as the source states them, for the method shown. Some entries that bind do so weakly or less than the wild type. Blank lines part the entries; values can stand above or below the binder they belong to.
Columns and labels:
human plasmin (human) [1] = target: human plasmin (human) (UniProt P00747); assay: preliminary testing of proteins for plasmin inhibitory activity
human plasmin (human) [2] = target: human plasmin (human) (UniProt P00747); assay: phage display selection of the third library, three rounds on plasmin, isolate sequenced
human plasmin (human) [3] = target: human plasmin (human) (UniProt P00747); assay: ranking by plasmin inhibition (footnote of Table 8)
human plasmin (human) [4] = target: human plasmin (human) (UniProt P00747); assay: phage display selection of the second library on plasmin, selected clone sequenced
human plasmin (human) [5] = target: human plasmin (human) (UniProt P00747); assay: binding of clonally pure display phage to plasmin compared with BPTI display phage
human plasmin (human) [6] = target: human plasmin (human) (UniProt P00747); assay: separate phage display screening against plasmin, selected clone sequenced
human plasmin (human) [7] = target: human plasmin (human) (UniProt P00747); assay: inhibition of plasmin hydrolysis of a fluorogenic substrate

The chains behind the UniProt entries cited, without tags or fusion partners. Residues count along the entry.
UniProt P00747, residues 97-810: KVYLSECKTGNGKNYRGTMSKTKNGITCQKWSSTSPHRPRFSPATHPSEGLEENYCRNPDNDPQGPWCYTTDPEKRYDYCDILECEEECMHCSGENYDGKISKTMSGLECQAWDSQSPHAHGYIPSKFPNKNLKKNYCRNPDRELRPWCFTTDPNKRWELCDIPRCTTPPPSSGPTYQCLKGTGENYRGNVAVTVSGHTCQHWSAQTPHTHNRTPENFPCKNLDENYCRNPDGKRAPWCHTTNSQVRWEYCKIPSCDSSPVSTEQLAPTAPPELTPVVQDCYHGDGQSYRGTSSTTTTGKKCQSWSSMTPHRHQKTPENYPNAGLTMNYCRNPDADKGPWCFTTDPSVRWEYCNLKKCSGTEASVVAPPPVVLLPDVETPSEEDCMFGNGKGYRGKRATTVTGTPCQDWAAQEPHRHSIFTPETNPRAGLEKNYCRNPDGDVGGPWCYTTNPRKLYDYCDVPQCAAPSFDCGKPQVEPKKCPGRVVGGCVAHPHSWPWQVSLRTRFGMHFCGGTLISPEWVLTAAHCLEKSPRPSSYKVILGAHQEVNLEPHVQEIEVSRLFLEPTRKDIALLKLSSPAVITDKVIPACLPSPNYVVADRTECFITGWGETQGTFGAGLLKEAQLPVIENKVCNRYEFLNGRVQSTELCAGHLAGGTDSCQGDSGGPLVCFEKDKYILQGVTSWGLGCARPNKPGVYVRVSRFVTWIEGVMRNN

B3: SPI41 (designed binder)
chain: MHSFCAFKADAGPCRARFERFFFNIFTRQCDTFLYGGCEGNQNRFESLEECKKMCTRD
binding (human plasmin (human) [2]): binds

B7: SPI42 (designed binder)
chain: MHSFCAFKAETGPCRGKFDRWFFNIFTRQCQGFVYGGCGGNQNRFESLEECKKMCTRD
binding (human plasmin (human) [2]): binds

B9: SPI43 (designed binder)
chain: MHSFCAFKAETGPCRGKFDRWFFNIFTRQCESFHYGGCKGNQNRFESLEECKKMCTRD
binding (human plasmin (human) [1]): binds
binding (human plasmin (human) [2]): binds
binding (human plasmin (human) [3]): binds

B12: SPI22 (designed binder)
chain: MHSFCAFKADGGPCKGKFPRFFFNIFTRQCEEFIYGGCEGNQNRFESLEECKKMCTRD
binding (human plasmin (human) [1]): binds
binding (human plasmin (human) [4]): binds
binding (human plasmin (human) [3]): binds
binding (human plasmin (human) [5]): binds

B13: ARFK#10 (designed binder)
chain: MHSFCAFKADDGPCKARFERFFFNIFTRQCEEFSYGGCKGNQNRFESLEECKKMCTRD
binding (human plasmin (human) [6]): binds

B14: ARFK#16 (designed binder)
chain: MHSFCAFKADDGPCKARFERFFFNIFTRQCEQFTYGGCMGNQNRFESLEECKKMCTRD
binding (human plasmin (human) [6]): binds

B15: ARFK#12 (designed binder)
chain: MHSFCAFKADDGPCKASFERFFFNIFTRQCEQFTYGGCNGNQNRFESLEECKKMCTRD
binding (human plasmin (human) [6]): binds

B16: ARFK#15 (designed binder)
chain: MHSFCAFKADDGPCKARFERFFFNIFTRQCEQFTYGGCGGNQNRFESLEECKKMCTRD
binding (human plasmin (human) [6]): binds

B17: ARFK#13 (designed binder)
chain: MHSFCAFKADDGPCKASFERFFFNIFTRQCEEFTYGGCLGNQNRFESLEECKKMCTRD
binding (human plasmin (human) [6]): binds

B18: SPI15 (designed binder)
chain: MHSFCAFKAESGPCRARFDRWFFNIFTRQCEEFIYGGCEGNQNRFESLEECKKMCTRD
binding (human plasmin (human) [4]): binds
binding (human plasmin (human) [5]): binds

B20: SPI08 (designed binder)
chain: MHSFCAFKADGGPCRARFERFFFNIFTRQCEEFIYGGCEGNQNRFESLEECKKMCTRD
binding (human plasmin (human) [4]): binds
binding (human plasmin (human) [5]): binds

B22: ARFK#14 (designed binder)
chain: MHSFCAFKADDGPCKARFERFFFNIFTRQCEQFFYGGCHGNQNRFESLEECKKMCTRD
binding (human plasmin (human) [6]): binds

B23: SPI11 (Selected Plasmin Inhibitor#11) (designed binder)
chain: MHSFCAFKAETGPCRARFDRWFFNIFTRQCEEFIYGGCEGNQNRFESLEECKKMCTRD
binding (human plasmin (human) [1]): binds
binding (human plasmin (human) [4]): binds
binding (human plasmin (human) [3]): binds
binding (human plasmin (human) [5]): binds

B24: SPI46 (designed binder)
chain: MHSFCAFKADVGPCRAKFERFFFNIFTRQCEAFLYGGCEGNQNRFESLEECKKMCTRD
binding (human plasmin (human) [2]): binds

B25: ARFK#11 (designed binder)
chain: MHSFCAFKADDGPCKARFERFFFNIFTRQCEEFVYGGCKGNQNRFESLEECKKMCTRD
binding (human plasmin (human) [6]): binds

B26: SPI23 (designed binder)
chain: MHSFCAFKAEGGPCRAKFQRWFFNIFTRQCEEFIYGGCEGNQNRFESLEECKKMCTRD
binding (human plasmin (human) [1]): binds
binding (human plasmin (human) [4]): binds
binding (human plasmin (human) [3]): binds
binding (human plasmin (human) [5]): binds

B28: QS4, yeast-expressed soluble protein (designed binder)
chain: EAAEMHSFCAFKADDGPCKARFERFFFNIFTRQCEQFYYGGCDGNQNRFESLEECKKMCTRD
binding (human plasmin (human) [1]): binds
binding (human plasmin (human) [3]): binds

B29: ARFK#2, yeast-expressed soluble protein (designed binder)
chain: EAAEMHSFCAFKADDGPCKARFERFFFNIFTRQCEEFVYGGCGGNQNRFESLEECKKMCTRD
binding (human plasmin (human) [7]): binds

B30: ARFK#1, yeast-expressed soluble protein (designed binder)
chain: EAAEMHSFCAFKADDGPCKARFERFFFNIFTRQCEQFVYGGCGGNQNRFESLEECKKMCTRD
binding (human plasmin (human) [7]): binds

Continued, values first:

binding (human plasmin (human) [1]): binds
binding (human plasmin (human) [2]): binds
binding (human plasmin (human) [3]): binds
B1: SPI51 (designed binder)
chain: MHSFCAFKADAGPCRAKFERFFFNIFTRQCTAFFYGGCGGNQNRFESLEECKKMCTRD

binding (human plasmin (human) [2]): binds
B2: SPI55 (designed binder)
chain: MHSFCAFKAEVGPCRAKFDRWFFNIFTRQCHLFTYGGCGGNQNRFESLEECKKMCTRD

binding (human plasmin (human) [1]): binds
binding (human plasmin (human) [2]): binds
binding (human plasmin (human) [3]): binds
B4: SPI54 (designed binder)
chain: MHSFCAFKADSGPCRARFDRWFFNIFTRQCTRFPYGGCGGNQNRFESLEECKKMCTRD

binding (human plasmin (human) [2]): binds
B5: SPI59 (designed binder)
chain: MHSFCAFKAETGPCRAKFDRWFFNIFTRQCNTFVYGGCGGNQNRFESLEECKKMCTRD

binding (human plasmin (human) [2]): binds
B6: SPI49 (designed binder)
chain: MHSFCAFKAETGPCRAKIPRLFFNIFTRQCEPFIWGGCGGNQNRFESLEECKKMCTRD

binding (human plasmin (human) [2]): binds
B8: SPI53 (designed binder)
chain: MHSFCAFKAETGPCKGSFDRWFFNIFTRQCNVFRYGGCRGNQNRFESLEECKKMCTRD

binding (human plasmin (human) [2]): binds
B10: SPI60 (designed binder)
chain: MHSFCAFKAETGPCRAKFDRWFFNIFTRQCEPFVYGGCEGNQNRFESLEECKKMCTRD

binding (human plasmin (human) [2]): binds
B11: SPI56 (designed binder)
chain: MHSFCAFKAETGPCRGKFDRWFFNIFTRQCAQFVYGGCEGNQNRFESLEECKKMCTRD

binding (human plasmin (human) [2]): binds
B19: SPI52 (designed binder)
chain: MHSFCAFKADAGPCRAKFERFFFNIFTRQCEAFLYGGCGGNQNRFESLEECKKMCTRD

binding (human plasmin (human) [1]): binds
binding (human plasmin (human) [2]): binds
binding (human plasmin (human) [3]): binds
B21: SPI47 (designed binder)
chain: MHSFCAFKADAGPCRAKFERFFFNIFTRQCEEFIYGGCEGNQNRFESLEECKKMCTRD

binding (human plasmin (human) [2]): binds
B27: SPI57 (designed binder)
chain: MHSFCAFKADSGPCKGRFGRLFFNIFTRQCTAFDWGGCGGNQNRFESLEECKKMCTRD

From patent US20090036365A1
